Data: paper PMC6300691, “Enhancement of Heat Stability and Kinetic Parameters of the Maize Endosperm ADP-Glucose Pyrophosphorylase by Mutagenesis of Amino Acids in the Small Subunit With High B Factors” (Frontiers in Plant Science, 2018)

Tests used:
[1] = system: maize endosperm AGPase; experiment: Pi inhibition in the absence of 3-PGA; assay type: biochemical; settings: P-MT partial mixed type
Source text: (§1) (2) v=Vm(S/Ks+(βSI)/(αKiKs))/(1+S/Ks+I/Ki+SI/αKiKs)P-MT
(§2) (3) v=Vm(S/Ks)/(1+S/Ks+I/Ki+SI/αKiKs)L-MT

[2] = system: maize endosperm AGPase; experiment: Pi inhibition in the presence of 3-PGA; assay type: biochemical; settings: P-MT partial mixed type, L-MT linear mixed type
Source text: as §1, §2

Measured: Pattern of Pi inhibition

B1: wt: wild type maize endosperm AGPase: SH2 large subunit with BT2 small subunit, expressed in E. coli (protein, UniProt P55241 46-516; P55241 46-516, looked up)
Glucose-1-phosphate … 1: FGGRVAATTQCILTSDACPETLHSQTQSSRKNYADANRVSAIILGGGTGSQLFPLTSTRATPAVPVGGCYRLIDIPMSNCFNSGINKIFVMSQFNSTSLNRHIHRTYLEGGINFADGSVQVLAATQMPEEPAGWFQGTADSIRKFIWVLEDYYSHKSIDNIVILSGDQLYRMNYMELVQKHVEDDADITISCAPVDESRASKNGLVKIDHTGRVLQFFEKPKGADLNSMRVETNFLSYAIDDAQKYPYLASMGIYVFKKDALLDLLKSKYTQLHDFGSEILPRAVLDHSVQACIFTGYWEDVGTIKSFFDANLALTEQPSKFDFYDPKTPFFTAPRCLPPTQLDKCKMKYAFISDGCLLRECNIEHSVIGVCSRVSSGCELKDSVMMGADTYETEEEASKLLLAGKVPVGIGRNTKIRNCIIDMNARIGKNVVITNSKGIQEADHPEEGYYIRSGIVVILKNATINDGSVI
Glucose-1-phosphate … 2: B1 Glucose-1-phosphate … 1
modifications: expressed in E. coli
P-MT: [1]; varied substrate ATP | [1]; varied substrate G-1-P | [2]; varied substrate ATP | [2]; varied substrate G-1-P
